Test results published in patent US20240307439A1.
Results are given in words; binding and its absence hold for the method and conditions named. Binding can be weak; no strength is given.

Chains of the proteins cited; added tags and fusions are not shown. Lines headed by an entry give the natural chain unless they say otherwise; changes in a name come on top.
UniProt P55899: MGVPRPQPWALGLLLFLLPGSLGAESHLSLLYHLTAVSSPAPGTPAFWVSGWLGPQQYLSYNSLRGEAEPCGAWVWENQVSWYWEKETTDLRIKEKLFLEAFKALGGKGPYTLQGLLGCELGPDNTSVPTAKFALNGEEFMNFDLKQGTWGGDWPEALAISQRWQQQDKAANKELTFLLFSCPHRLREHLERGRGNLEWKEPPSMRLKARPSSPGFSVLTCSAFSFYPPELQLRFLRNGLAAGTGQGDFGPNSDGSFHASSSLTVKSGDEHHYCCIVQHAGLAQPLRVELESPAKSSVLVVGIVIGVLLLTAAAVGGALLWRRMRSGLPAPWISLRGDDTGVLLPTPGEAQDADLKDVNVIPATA

Key:
[1] = biological target: Biotinylated human FcRn (human) (UniProt P55899); assay: ELISA
[2] = biological target: Biotinylated human FcRn (human) (UniProt P55899); assay: ELISA, adapter coated, biotinylated human FcRn titrated at pH 6.0 or 7.4
[3] = biological target: Biotinylated human FcRn (human) (UniProt P55899); assay: ELISA, adapter coated, biotinylated human FcRn titrated at pH 6.0 or 7.4, streptavidin-HRP, A450

Measured: binding

B1: bc40-p26 Adapter (designed binder)
chain: DEHHHHHHHHHHKLENLYFQGGGGGSMGSWSEFWVRLGAIRERLDALGGSEAELAAFEKEIAAFESELQAYKGKGNPEVEKLRYTAATIRRFLQAYRHNGGGGSGGGGSGGGGSLEKCFQTENPLECQDKGEEELQKYIQESQALAKRSCGLFQKLGEYYLQNAFLVAYTKKAPQLTSSELMAITRKMAATAATCCQLSEDKLLACGEGAADIIIGHLCIRHEMTPVNPGVGQCCTSSYANRRPCFSSLVVDETYVPPAFSDDKFIFHKDLCQAQGVALQTMKQEFLINLVKQKPQITEEQLEAVIADFSGLLEKCCQGQEQEVCFAEEGQKLISKTRAALGV
binds: [1] | [2] | [3]

B2: bc98-p26(Q26-V229)-bc98 (designed binder)
chain: DEMGSWSEFWARLGAIRERLDALGGSEAELAAFEKEIAAFESELQAYKGKGNPEVEKLRYTAGTIKRFLQAYRHNGGGGDGGGGSGGGGSGQESQALAKRSCGLFQKLGEYYLQNAFLVAYTKKAPQLTSSELMAITRKMAATAATCCQLSEDKLLACGEGAADIIIGHLCIRHEMTPVNPGVGQCCTSSYANRRPCFSSLVVDETYVPPAFSDDKFIFHKDLCQAQGVALQTMKQEFLINLVKQKPQITEEQLEAVIADFSGLLEKCCQGQEQEVCFAEEGQKLISKTRAALGVGGGGSGGGGSGGGGSMGSWSEFWARLGAIRERLDALGGSEAELAAFEKEIAAFESELQAYKGKGNPEVEKLRYTAGTIKRFLQAYRHNGGGGSGGGGSGGGGSHHHHHHHHHH
binds: [1] | [2] | [3]
